# Where a name gives a salt, the structure may show the parent alone. The list shows a part of the results. Repeats in this data set agree poorly, so a single value says little.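 ReNCell VM, a human fetal ventral-midbrain neural progenitor line, was differentiated without mitogens. Blinded raters scored images stained for doublecortin (early neurons) or tyrosine hydroxylase (dopaminergic neurons) against untreated wells (0 = no change). Scores were averaged across repeats and both raters, and compounds averaging 2 or more were selected as hits for retesting.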
# Experiments:
# ReNCell VM [1] = experiment: neuronal differentiation score (DCX+ cell fraction vs untreated, manual image score) (score (-3 to 3)); higher = more neuronal differentiation; conditions: 2 uM, 2 weeks
# ReNCell VM [2] = experiment: dopaminergic neuron differentiation score (TH+ cell fraction vs untreated, manual image score) (score (0 to 3)); higher = more TH+ dopaminergic neuron differentiation; conditions: 2 uM, 4 weeks, BDNF 10 ng/ml + GDNF 10 ng/ml
structure (smiles),measurement,setting,value
O=C(O)c1ccccc1C(=O)Nc1ccc(S(=O)(=O)Nc2nccs2)cc1,neuronal differentiation score,ReNCell VM [1]; library: Spectrum,inactive: 0
same,dopaminergic neuron differentiation score,ReNCell VM [2]; library: Spectrum,inactive: 0
CC(C)c1onc(-c2c(Cl)cccc2Cl)c1COc1ccc(/C=C/c2cccc(C(=O)O)c2)c(Cl)c1,neuronal differentiation score,ReNCell VM [1]; library: Tocriscreen,inactive: 0
same,dopaminergic neuron differentiation score,ReNCell VM [2]; library: Tocriscreen,inactive: 0
NC(N)=NCCNS(=O)(=O)c1cccc2cnccc12 [HA-1004 hydrochloride],neuronal differentiation score,ReNCell VM [1]; library: LOPAC,inactive: 0
same,dopaminergic neuron differentiation score,ReNCell VM [2]; library: LOPAC,inactive: 0
O=C1c2ccccc2C(=O)C1c1ccccc1,neuronal differentiation score,ReNCell VM [1]; library: Spectrum,inactive: 0
same,dopaminergic neuron differentiation score,ReNCell VM [2]; library: Spectrum,inactive: 0
Cc1[nH]c(/C=C2\C(=O)Nc3ccc(S(=O)(=O)Cc4c(Cl)cccc4Cl)cc32)c(C)c1C(=O)N1CCC[C@@H]1CN1CCCC1,neuronal differentiation score,ReNCell VM [1]; library: Tocriscreen,inactive: 0
same,dopaminergic neuron differentiation score,ReNCell VM [2]; library: Tocriscreen,inactive: 0
CC(Oc1ccc(O)cc1)(P(=O)(O)O)P(=O)(O)O,neuronal differentiation score,ReNCell VM [1]; library: Tocriscreen,inactive: 0
same,dopaminergic neuron differentiation score,ReNCell VM [2]; library: Tocriscreen,inactive: 0
CCCCCCCC/C=C/CCCCCCCCOP(=O)([O-])OCC[N+](C)(C)C,neuronal differentiation score,ReNCell VM [1]; library: Spectrum,inactive: 0
same,dopaminergic neuron differentiation score,ReNCell VM [2]; library: Spectrum,inactive: 0
COc1c2ccoc2nc2c(OC)c(OCC(O)C(C)(C)O)ccc12 (stereo unspecified) [Evoxine],neuronal differentiation score,ReNCell VM [1]; library: Phytochemical,inactive: 0
same,dopaminergic neuron differentiation score,ReNCell VM [2]; library: Phytochemical,inactive: 0
COc1ccc(C(=O)c2ccccc2)c(O)c1 [Oxybenzone],neuronal differentiation score,ReNCell VM [1]; library: Prestwick,inactive: 0
same,dopaminergic neuron differentiation score,ReNCell VM [2]; library: Prestwick,inactive: 0
CCCCCCCCCCCCCCCC(=O)OC[C@@H](NC(=O)C(Cl)Cl)[C@H](O)c1ccc([N+](=O)[O-])cc1,neuronal differentiation score,ReNCell VM [1]; library: Spectrum,inactive: 0
same,dopaminergic neuron differentiation score,ReNCell VM [2]; library: Spectrum,inactive: 0
O=C(CCCN1CC=C(n2c(=O)[nH]c3ccccc32)CC1)c1ccc(F)cc1,neuronal differentiation score,ReNCell VM [1]; library: Spectrum,inactive: 0
same,dopaminergic neuron differentiation score,ReNCell VM [2]; library: Spectrum,inactive: 0
O=C1C(O)=C(O)C(=O)C(O)=C1O,neuronal differentiation score,ReNCell VM [1]; library: Spectrum,inactive: 0
same,dopaminergic neuron differentiation score,ReNCell VM [2]; library: Spectrum,inactive: 0
CC(C)c1ccc2c(c1)c(SC(C)(C)C)c(CC(C)(C)C(=O)O)n2Cc1ccc(Cl)cc1,neuronal differentiation score,ReNCell VM [1]; library: LOPAC,inactive: 0
same,dopaminergic neuron differentiation score,ReNCell VM [2]; library: LOPAC,inactive: 0

# Another view of part of the listing above.
structure (smiles)	measurement	setting	value
COc1ccc(C(=O)c2ccccc2)c(O)c1 [Oxybenzone]	neuronal differentiation score	ReNCell VM [1]; library: Prestwick	inactive: 0
same	dopaminergic neuron differentiation score	ReNCell VM [2]; library: Prestwick	inactive: 0

# Reference: the supplement of paper PMC4635364
